# Measurements as given in PubChem BioAssay AID1259415 (National Center for Advancing Translational Sciences (NCATS), 2018).
# The campaign covered roughly 410,000 compounds. About 18,000 (4.4%) were called active. The inconclusive results got no clear call from the source; some entries with a clear call stand among them for comparison. Cut-off read from the data, not from the text of the source: active = activity change below about -60%; inconclusive = no clear call, values can overlap the other calls; inactive = above about -39%.
# Assay: qHTS Assay for inhibitors of the human cytomegalovirus (HCMV)
# Details: HFF cells, HCMV-luciferase reporter, 72 h; at 57.5 µM; stronger effect = lower value
# Method in brief: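 Luciferase read-out from HCMV-luciferase-infected HFFs (MOI 1 PFU/cell) 72 h post infection at 37C; compounds added after 16 h cell attachment; activity normalized between buffer-only basal and Salinomycin (10uM) inhibitor controls.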
# % is set by controls: 0 for no effect and ±100 for the full control effect.
row,Structure (SMILES),"activity change, negative = inhibition"
1,CC(C)OCCCn1c(=O)c2ccccc2n2c(CCC(=O)O)nnc12,inactive: -18.1%
2,Cc1ccc(/C=N/NC(=O)Cn2cnc3c2c(=O)n(C)c(=O)n3C)s1,inconclusive: -42.7%
3,COc1ccc(-c2csc3ncnc(Sc4nnnn4C)c23)cc1,active: -92.4%
4,COCCNC(=O)NC12CC3(C)CC(C)(CC(C)(C3)C1)C2,inconclusive: -44.1%
5,O=C(CSc1ccc2c(c1)OCCO2)NC(=O)Cc1ccccc1,inactive: 51.1%
6,COCCCNC(=O)C(=O)NCC(c1ccc2c(c1)OCO2)N1CCOCC1 (stereo not given),active: -113%
7,Cc1cc(C(=O)OCC(=O)NCc2cccs2)ccc1[N+](=O)[O-],inconclusive: -41.6%
8,O=C(CSc1ccccc1)N/N=C/c1ccccc1O,inconclusive: -59.4%
9,Cc1cc(C)n2nc(C(=O)Nc3ccc4c(c3)CCC4)nc2n1,inconclusive: -43%
10,CON1C(=O)C(=O)N(OC)C(C)(C)C1C (stereo not given),inconclusive: -52.3%
11,COc1ccc(NC(=O)/C(C#N)=C\C=C\c2ccco2)cc1,inconclusive: -44.3%
12,O=C1c2ccccc2C(=O)c2c1ccc1c(=O)n(C3CCCCC3)[nH]c21,inconclusive: -58.5%
13,CCOc1cc(N2CCOCC2)c(OCC)cc1NC(=O)c1cc(-c2ccco2)nc2ccccc12,inconclusive: -51.7%
14,O=C(Nc1ccc2nc(SCCOc3ccccc3Cl)sc2c1)c1cccs1,active: -87.8%
15,Cc1ccc(/C=N/NC(=O)CSc2nc3ccccc3n2Cc2ccccc2)o1,inconclusive: -51.7%
16,O=C1CC(c2ccc(Cl)cc2)Oc2ccc(Cl)cc21 (stereo not given),inconclusive: -41.8%
17,Cc1noc(C)c1NC(=O)Nc1cccc2c1O[C@H](CN(C)S(=O)(=O)c1ccc(F)cc1)[C@@H](C)CN([C@H](C)CO)C2=O,inconclusive: -44.2%
18,CCOC(=O)c1cc(-c2ccc(OC)c(S(=O)(=O)Nc3ccc(OC)cc3OC)c2)on1,inconclusive: -53.6%
19,O=C(c1ccc(F)c(S(=O)(=O)N2CCOCC2)c1)N1CCN(c2ccc(F)cc2)CC1,active: -64.8%
20,COc1ccccc1N(CC(=O)Nc1ccc(Cc2ccncc2)cc1)S(=O)(=O)c1ccccc1,inconclusive: -55.2%
21,O=C(Nc1cccc2ccccc12)c1cn(-c2ccccc2)nc1-c1cccs1,inconclusive: -51.5%
22,COc1ccc(CCN2CCCC(CN(C)Cc3cc(OC)c(OC)c(OC)c3)C2)cc1 (stereo not given),inactive: 26.3%
23,COc1ccc(CN(C)C(=O)CNC(=O)c2sc3ccccc3c2Cl)c(OC)c1,inconclusive: -40.9%
24,Cc1cc(NC(=O)c2c(F)cccc2Cl)n(-c2nc3ccccc3[nH]2)n1,inconclusive: -58%
25,Cc1ccccc1-n1c(=S)[nH]c2nc3c(cc2c1=O)CCCC3,inactive: -8.33%
26,Cc1ccc(Cl)c2c1NC(=O)C2(O)CC(=O)c1ccc(F)cc1 (stereo not given),inconclusive: -41.9%
27,Cc1ccc(C(=O)Nc2ccc(NC(=O)c3cccs3)cc2)c(C)c1,inconclusive: -55.6%
28,Cc1ccc(C)c(Nc2cc(C(=O)NC3CCCCC3)c3ccccc3n2)c1,inactive: 18.3%

# Reformatted: 3 of the compounds above.
row | Structure (SMILES) | activity change, negative = inhibition
7 | Cc1cc(C(=O)OCC(=O)NCc2cccs2)ccc1[N+](=O)[O-] | inconclusive: -41.6%
8 | O=C(CSc1ccccc1)N/N=C/c1ccccc1O | inconclusive: -59.4%
19 | O=C(c1ccc(F)c(S(=O)(=O)N2CCOCC2)c1)N1CCN(c2ccc(F)cc2)CC1 | active: -64.8%

# (further entries)

row,Structure (SMILES),"activity change, negative = inhibition"
1,Cc1ccc(S(=O)(=O)N2CCN(C(=O)c3ccccc3)C2C(C)C)cc1 (stereo not given),inconclusive: -51.1%
2,Cn1nc([N+](=O)[O-])nc1Sc1nnc(-c2ccccc2)o1,active: -90%
3,Cc1ccc(C)c(NC(=S)NNC(=S)Nc2ccc(C(C)C)cc2)c1,inconclusive: -55.2%
4,O=C(CCn1c(=O)c2cccn2c2ccc(F)cc21)NCCc1ccccc1,inconclusive: -48.2%
5,O=c1ccc(-c2ccc(S(=O)(=O)NCC3CCN(Cc4ccccc4F)CC3)s2)n[nH]1,inactive: -33.7%
6,Cc1ccc(S(=O)(=O)N(C)c2ccc(OCC(=O)NCC3(N(C)C)CCCCC3)cc2)cc1,inconclusive: -46.1%
7,O=C(NCc1ccc(Cl)cc1)C1CCCN(C(=O)c2cnn(-c3ccc(F)cc3)c2-n2cccc2)C1 (stereo not given),inactive: 25.4%
8,Cc1ccc(C(=O)NNC(=S)NC(=O)COc2ccccc2)cc1,inconclusive: -56.2%
9,O=C(OCCCN1CCCC1)C1(c2ccccc2)CCCC1,inconclusive: -42.3%
10,Cc1ccc(N(CC(=O)NC2CC2)S(=O)(=O)c2ccccc2)c(C)c1,inconclusive: -42.2%
11,CCOc1ccc(NC(=O)N2CCC(CN3CCc4ccccc4C3)CC2)cc1,inconclusive: -41.5%
12,Cc1cc(Cl)ccc1OCCCC(=O)N/N=C/c1cccc([N+](=O)[O-])c1,inconclusive: -59.7%
13,CCN(CC)S(=O)(=O)c1ccc2[nH]cc(C(=O)NCCN3CCCCCC3)c(=O)c2c1,inactive: -16.7%
14,O=C(COc1ccccc1)NCC1(N2CCCCC2)CCCCC1,inconclusive: -50.9%
15,Cc1c(N=Nc2c(-c3ccc([N+](=O)[O-])cc3)[nH]n(C(N)=S)c2=O)cccc1[N+](=O)[O-],active: -95.6%
16,N#CCSc1nnc(COc2ccc3ccccc3c2)o1,inconclusive: -46.5%
17,O=C(CCn1c(=O)c2cccn2c2cccnc21)NCc1cccc(Cl)c1,inconclusive: -46.1%
18,Cc1ccc(-n2nnnc2/C=C\Nc2cc(C)on2)cc1,inconclusive: -41.1%
19,Cc1cccn2c(=O)c(/C=C(\C#N)C(N)=O)c(N3CCCCCC3)nc12,active: -70.1%
20,COc1ccc(OC)c(CNn2c(-c3ccccc3F)nc3ccccc3c2=O)c1,inconclusive: -41.2%
21,COc1ccc(N2CC(C(=O)Nc3cc(C)ccn3)CC2=O)cc1 (stereo not given),inactive: -15.8%
22,CCOC(=O)c1c(C)n(Cc2ccccc2)c2ccc(O)cc12,inactive: -24%
23,CCc1cc2cc3c(cc2nc1SCC(=O)Nc1cc(C)on1)OCO3,inconclusive: -47.1%
24,COc1ccc(NC(=O)Nc2sc3nc4n(c(=O)c3c2C)CCC(C)CC4)cc1OC (stereo not given),inconclusive: -51.5%
25,COc1cccc(/C=N/NC(=O)c2cc3c(OC)cccc3[nH]2)c1O,active: -75%
26,Cc1ccc(C(=O)N2C(CC(=O)Nc3ccc(Cl)cc3)C(=O)NC3CCCCC32)cc1 (stereo not given),inactive: 0%
27,Cc1ccc(C(CC(=O)N2CCCCC2)c2ccccc2)c(O)c1C (stereo not given),inconclusive: -40.9%
